This is an account of results in PubChem BioAssay AID248 (DTP/NCI, 2004).

The subject of this experiment is L1210 leukemia ip in BDF1 mice, survival T/C. As to the kind of experiment: NCI In Vivo Anticancer Drug Screen. Data for tumor model L1210 Leukemia (intraperitoneal) in B6D2F1 (BDF1) mice. Particulars: T/C endpoint: mean survival time, higher T/C = longer survival.
[1] abbreviates: dose: 100.0 mg/kg/injection, schedule: Q04DX003 (ip), vehicle: saline with Tween-80.
The mark [2] stands for this setting: dose: 200.0 mg/kg/injection, schedule: Q04DX003 (ip), vehicle: saline with Tween-80.
The mark [3] stands for this setting: dose: 400.0 mg/kg/injection, schedule: Q04DX003 (ip), vehicle: saline with Tween-80.
Setting [4] is: dose: 150.0 mg/kg/injection, schedule: Q01DX001 (ip), vehicle: saline.
[5] abbreviates: dose: 300.0 mg/kg/injection, schedule: Q01DX001 (ip), vehicle: saline.

The list does not hold the whole screen: it gathers tests that were run many times, whatever their T/C, doses with no T/C, and many T/C values between a quarter and a half above the control. Other doses and runs of a compound stand elsewhere. T/C gives the treated animals as a percentage of the vehicle group. Some entries give survivors of the animals treated and no T/C: the source holds a T/C of zero for them, seemingly a mark for toxic or unscored doses. Some doses without a T/C left all or most animals alive at the check, yet need not have been tolerated: survival well below the control is almost never listed, so the zero probably covers shortened survival too. Counts of survivors are from the toxicity check (mostly the fifth day) where no day follows; animals may have died later. Schedule codes are those of the source, taken here to give the interval after Q, in days (D) or hours (H), and the number of doses after X. Some schedule codes hold Z or #, which are not explained here. For survival time, this PubChem deposit counts one and a half times the control or more as active, and values a quarter to a half above the control carry no call in these data; other NCI protocols may use other cut-offs.

Consider `CCCCCCCCCCCCNC(=O)C[n+]1cccc(C(=O)N(C)C)c1`, for which the survivor count is 3 of 6 (dose: 100.0 mg/kg/injection, schedule: Q04DX003 (ip), vehicle: saline); 0 of 6 (dose: 200.0 mg/kg/injection, schedule: Q04DX003 (ip), vehicle: saline); 0 of 6 (dose: 400.0 mg/kg/injection, schedule: Q04DX003 (ip), vehicle: saline).
For the compound `Cc1ncc(CO)c(C2NOCc3nccnc32)c1O` (stereo not drawn), the survivor count is listed as 4 of 6 (dose: 25.0 mg/kg/injection, schedule: Q04DX003 (ip), vehicle: saline); 1 of 6 (dose: 50.0 mg/kg/injection, schedule: Q04DX003 (ip), vehicle: saline); 0 of 6 under setting [1]; 0 of 6 under setting [2]; 0 of 6 under setting [3].
On to `CC[N+](CC)(CC)c1ccccc1`, for which the survivor count (dose: 100.0 mg/kg/injection, schedule: Q04DX002 (ip), vehicle: saline) is 0 of 3; the survivor count (dose: 200.0 mg/kg/injection, schedule: Q04DX002 (ip), vehicle: saline) is 0 of 3; the survivor count (dose: 400.0 mg/kg/injection, schedule: Q04DX002 (ip), vehicle: saline) was 0 of 3.
Take `Nc1nc(=O)c2[nH]cnc2n1O`: the survivor count reads like this: (dose: 85.0 mg/kg/injection, schedule: Q01DX009 (ip), vehicle: saline) 2 of 6; (dose: 125.0 mg/kg/injection, schedule: Q01DX009 (ip), vehicle: saline) 0 of 6; (dose: 185.0 mg/kg/injection, schedule: Q01DX009 (ip), vehicle: saline) 0 of 6.
As to `O=[N+]([O-])c1ccc(F)cc1F`, the survivor count runs as follows: (dose: 175.0 mg/kg/injection, schedule: Q01DX009 (ip), vehicle: Klucel (hydroxypropylcellulose) (HPC)) 0 of 6; (dose: 350.0 mg/kg/injection, schedule: Q01DX009 (ip), vehicle: Klucel (hydroxypropylcellulose) (HPC)) 0 of 6.
`CC1=C(O)c2ccccc2C(=O)C1=O`: the survivor count was 5 of 6 (dose: 100.0 mg/kg/injection, schedule: Q01DX Z (ip), vehicle: other); 0 of 6 (dose: 150.0 mg/kg/injection, schedule: Q01DX Z (ip), vehicle: other); 0 of 6 (dose: 200.0 mg/kg/injection, schedule: Q01DX Z (ip), vehicle: other).
As for `COc1ccc(CC2NCCc3cc(OC)c(OC)cc32)cc1OC` (stereo not drawn), the survivor count by setting is: under setting [4], 1 of 6; under setting [5], 0 of 6.
As for `CCOC(=O)CN1C(=O)NC2(CCc3ccccc3C2)C1=O` (stereo not drawn), the survivor count under setting [1] was 0 of 6 and the survivor count under setting [2] is given as 0 of 6.
With `Cn1ncc2c(NCc3ccccc3Cl)ncnc21`, the T/C (dose: 100.0 mg/kg/injection, schedule: Q01DX009 (ip), vehicle: other) is 134 % of control. Besides, the survivor count (dose: 400.0 mg/kg/injection, schedule: Q01DX009 (ip), vehicle: other) is recorded as 3 of 6.
Regarding `CCOC12CC3C4=CCOC5CC(=O)N6c7ccccc7C1(CCN2C4)C6C53` (stereo not drawn), the survivor count (dose: 75.0 mg/kg/injection, schedule: Q01DX001 (ip), vehicle: saline) is on record as 3 of 6; the survivor count under setting [4] is given as 0 of 6; the survivor count under setting [5] was 0 of 6.
With `O=C1C(=C(C(F)(F)F)C(F)(F)F)C2CCC1C2` (stereo not drawn), the survivor count is reported as 4 of 6 (dose: 25.0 mg/kg/injection, schedule: Q01DX009 (ip), vehicle: saline with Tween-80); 0 of 6 under setting [1]; 0 of 6 under setting [2]; 0 of 6 under setting [3].
In the case of `O=c1[nH]ncc2ccc([N+](=O)[O-])cc12`, the survivor count (dose: 300.0 mg/kg/injection, schedule: Q01DX001 (ip), vehicle: other) was 2 of 6.
Take `O=c1[nH]cnc2nc(SCc3cccc([N+](=O)[O-])c3)[nH]c12`: the survivor count (dose: 75.0 mg/kg/injection, schedule: Q01DX001 (ip), vehicle: other) is recorded as 6 of 6.
Consider `CCCCOP(=O)(OCCCC)[O][Pb]([CH2]C)([CH2]C)[CH2]C`, for which the survivor count reads like this: (dose: 12.5 mg/kg/injection, schedule: Q01DX009 (ip), vehicle: saline with Tween-80) 2 of 6; under setting [1], 5 of 6; under setting [2], 0 of 6; under setting [3], 0 of 6.
